AC50 data for 62 molecules are collected here from PubChem BioAssay AID445 (National Center for Advancing Translational Sciences (NCATS), 2006).

The other results are listed elsewhere or left out. The main result of the screen is listed elsewhere. These columns were measured beside it and carry no call. Most of these compounds were active or inconclusive in the main read-out, so they are no random draw. The note in brackets gives the kind of curve behind each potency; many fits are weak.

The nature of the assay: IkB Signaling. The following applies: ABC-DLBCL IkBa-CBG/CBR dual luciferase ratio (green luciferase fused to IkBa over red control in OCI-Ly3 lymphoma cells), 4 h. An outline of the steps: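 Luminescence ratio of IκBα-fused green versus native red beetle luciferase in OCI-Ly3 cells, 4 h post-doxycycline with compound; red signal alone, scaled from basal (0%) to zero light (-100%), flagged nonspecific or cytotoxic effects.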
Where [1] appears, read: measured here: control luc red channel unless noted.

For the molecule `CCCCCOC(=O)NCC(O)c1ccccc1` (stereo not drawn), the AC50 under setting [1] was 10 µM [falling, partial curve].

As for `CCc1cccc(NC(=O)C(NS(=O)(=O)c2ccc3nc(C)sc3c2)C(C)C)c1` (stereo not drawn), the half-maximal activity concentration (AC50) under setting [1] was 25.1 µM [falling, single point].

As to `O=C(C1=C(O)C(=O)N(CCN2CCOCC2)C1c1ccccn1)c1cccs1` (stereo not drawn), the AC50 under setting [1] is 25.1 µM [falling, single point].

Regarding `CCOC(=O)c1ccn(-c2nc(-c3ccco3)cc(C(F)(F)F)n2)n1`, the AC50 under setting [1] is 25.1 µM [falling, partial curve].

On to `COc1ccccc1N1CCN(c2ccc(-c3ccccc3)nn2)CC1`, for which, under setting [1], the AC50 is 631 nM [rising, full curve] [measured here: IkB-luc green channel].

For the molecule `O=C(Nc1nc2ccccc2s1)c1ccc(S(=O)(=O)N2CCCC2)cc1`, the AC50 under setting [1] was 0.1 µM [falling, partial curve, poor fit].

As for `O=S(=O)(c1ccc2nc(NCc3ccccc3Cl)ccc2c1)N1CCCCC1`, the AC50 under setting [1] is 2.51 µM [rising, full curve].

For the molecule `CC(O)CN1C(=O)C(CC(=O)Nc2ccc(Cl)cc2)SC1=Nc1ccccc1` (stereo not drawn), under setting [1], the AC50 was 15.8 µM [falling, partial curve].

`CC(CNC(=O)c1ccc(CSc2nc3ccncc3n2Cc2ccccc2)cc1)c1ccccc1` (stereo not drawn): the AC50 under setting [1] was 12.6 µM [falling, partial curve].

Consider `COc1ccc(CNC(=O)CSc2nc(-c3ccc(OC)c(OC)c3)cc(C(F)(F)F)n2)cc1`, for which the AC50 under setting [1] was 0.794 µM [rising, full curve, poor fit].

For `COc1cc(Cl)c(NS(=O)(=O)c2ccc(-c3cnc(C4CC4)o3)cc2)c(OC)c1`, under setting [1], the AC50 was 2 µM [rising, partial curve].

For `O=C(CN1c2cccc3cccc(c23)S1(=O)=O)NCc1ccc2c(c1)OCO2`, the AC50 under setting [1] is 12.6 µM [falling, partial curve].

Regarding `CC(C)CCNC(=O)C(c1ccco1)N(Cc1cccs1)C(=O)Cn1nnc2ccccc21` (stereo not drawn), the AC50 under setting [1] was 3.16 µM [falling, partial curve].

For `CCCc1ccc(-c2ccc(C(=O)Oc3ccc(OCC)cc3)cc2)nc1`, the AC50 under setting [1] was 1.26 µM [falling, full curve].

`Cc1ccc(CCNC(=O)CS(=O)Cc2nc(-c3ccccc3C)oc2C)cc1` (stereo not drawn): the AC50 under setting [1] is 25.1 µM [falling, partial curve].

For `CCN(Cc1ccccc1)C(=O)Cn1c(=O)n(-c2ccc(Cl)cc2)c(=O)c2c(C)c(C(=O)N(C)C)sc21`, the AC50 under setting [1] is 1.26 µM [rising, full curve].

Consider `CCc1ccc(OCc2nc(-c3ccc(OC)cc3)no2)c(Br)c1`, for which the AC50 under setting [1] was 5.01 µM [falling, partial curve].

As to `Cc1nn(-c2ccc(N3CCCC3)nn2)c(C)c1CCC(=O)Nc1ccc(F)cc1F`, the AC50 under setting [1] was 31.6 µM [falling, single point].

For the molecule `O=C(NCc1ccc(F)cc1)c1ccc(Nc2nc3ccccc3n3nnnc23)cc1`, the AC50 under setting [1] is 2.51 µM [falling, partial curve].

As to `CCCC12CN3CC(CCC)(CN(C1)C3c1ccccc1)C2=O` (stereo not drawn), the AC50 under setting [1] is 31.6 µM [falling, partial curve].

On to `CCOC(=O)c1ccc(NC(=O)NCCOCCn2c(=O)oc3ccccc32)cc1`, for which the AC50 under setting [1] was 12.6 µM [falling, partial curve].

For the molecule `CC/C(=C(\c1ccccc1)c1ccc(OCCN(C)C)cc1)c1ccc(O)cc1`, the AC50 under setting [1] was 15.8 µM [falling, partial curve].

Consider `CCS(=O)(=O)c1nc(S(=O)(=O)c2ccc(C)cc2)c(NCCCOC)s1`, for which, under setting [1], the AC50 was 25.1 µM [falling, partial curve, poor fit].

`Cn1nnc(NC(=O)COc2ccc(C3CCCCC3)cc2)n1`: the concentration at half-maximal activity (AC50) under setting [1] is 12.6 µM [falling, partial curve].

Regarding `O=C(Nc1ccccc1Br)C(Cc1ccccc1)NS(=O)(=O)c1cccc2nsnc12` (stereo not drawn), the AC50 under setting [1] is 10 µM [falling, partial curve].

For `COc1ccccc1NC(=O)C1CCN(C(=O)c2sc3nc[nH]c(=O)c3c2C)CC1`, the AC50 under setting [1] is 0.631 µM [rising, full curve].

With `CC(=O)c1ccc(NC(=O)c2ccc(-c3ccc(Cl)cc3)o2)cc1`, under setting [1], the AC50 was 1 µM [rising, full curve, poor fit].

As for `COc1cccc(CSc2nc3n(n2)C(CC(C)C)C(C(=O)Nc2ccccc2OC)=C(C)N3)c1` (stereo not drawn), the AC50 under setting [1] is 0.2 µM [falling, full curve].

In the case of `CCOc1ccc(S(=O)(=O)N(CC(=O)NCc2ccccc2OC)c2ccccc2)cc1`, under setting [1], the AC50 is 15.8 µM [falling, partial curve].

With `CC(OC(=O)c1cc(=O)[nH]c2ccccc12)c1ccccc1` (stereo not drawn), the half-maximal activity concentration (AC50) under setting [1] is 20 µM [falling, single point].

For the molecule `O=C(O)c1cccc(NC(=O)c2ccccc2)c1`, under setting [1], the AC50 is 7.94 µM [falling, partial curve].

For `COc1ccc(C(=O)N2CCC(C(=O)Nc3ccc(Cl)cc3)CC2)cc1`, under setting [1], the AC50 was 31.6 µM [falling, single point].

In the case of `CCOC(=O)C1CCN(C(=O)COc2cc(C)c(Br)cc2C)CC1`, under setting [1], the AC50 was 2 µM [falling, full curve].

As to `CC(C(=O)NCC1CCCO1)N(C(=O)c1snc(C(N)=O)c1N)c1ccccc1` (stereo not drawn), under setting [1], the AC50 was 63.1 nM [rising, full curve] [measured here: IkB-luc green channel].

As to `Cc1ccccc1Nc1c(-c2ccc(Br)o2)nc2ccc(Cl)cn12`, under setting [1], the AC50 was 7.94 µM [falling, partial curve].

Turning to `CCc1ccc(NC(=O)Cc2c(C(=O)O)c(C)cn2C)cc1`, the AC50 under setting [1] was 15.8 µM [rising, partial curve].

On to `O=C(CC(SCCO)c1ccc(F)cc1)c1ccco1` (stereo not drawn), for which the AC50 is 31.6 µM [rising, partial curve] (measured here: IkB-luc green channel) and 39.8 µM [falling, single point] (measured here: control luc red channel).

For the molecule `CCN(Cc1nc(-c2ccc(OC)cc2)oc1C)S(=O)(=O)c1ccc(C)cc1`, the AC50 under setting [1] was 31.6 µM [falling, partial curve].

As for `Cc1c(CCNC(=O)c2ccco2)sc2nc(-c3ccc(F)cc3)nn12`, the AC50 under setting [1] was 3.98 µM [rising, single point].

With `Cc1ccc(NC(=O)CN2CCSc3ccc(S(=O)(=O)N4CCCC4)cc32)cc1`, the AC50 under setting [1] was 12.6 µM [falling, partial curve].

With `CCc1ccc(Oc2c(C(F)(F)F)oc3c(CN4CCC(C)CC4)c(O)ccc3c2=O)cc1`, the AC50 under setting [1] is 0.251 µM [falling, single point].

Regarding `O=C(NC1CC1)c1cc2c(s1)-c1ccccc1OC2`, the AC50 under setting [1] was 12.6 µM [falling, partial curve].

For `O=C(Nc1ccc2nc(SCC(=O)N3CCCC3)sc2c1)c1cccc(Br)c1`, under setting [1], the AC50 is 31.6 µM [falling, partial curve].

Regarding `Cc1cc(C)cc(N2C(=O)CSC23C(=O)N(CC(=O)Nc2ccc(F)cc2F)c2ccccc23)c1` (stereo not drawn), the AC50 under setting [1] is 12.6 µM [falling, partial curve].

For `CCOCCCN1C(=O)c2[nH]nc(-c3ccccc3O)c2C1c1ccc(CC)cc1` (stereo not drawn), the AC50 under setting [1] was 15.8 µM [falling, partial curve].

As to `Cc1cc(C)c(C#N)c(SC2CCCCC2=O)n1` (stereo not drawn), the AC50 under setting [1] is 5.01 µM [falling, full curve, poor fit].

In the case of `CCc1cccc(NC(=O)Cn2c(=O)n(CC(=O)NCCc3ccccc3)c(=O)c3ccccc32)c1`, the AC50 under setting [1] was 10 µM [falling, partial curve].

Turning to `CC(C)CCn1c(=O)c2sccc2n2c(CCCC(=O)NCCc3ccccc3)nnc12`, under setting [1], the AC50 was 39.8 µM [falling, single point].

As to `O=C1CC(c2ccccc2)c2c(n3ncnc3[nH]c2=O)N1` (stereo not drawn), the AC50 under setting [1] was 5.01 µM [rising, full curve].

Regarding `COc1cccc(-c2cc(C(=O)Nc3cccc(O)c3)no2)c1`, the AC50 under setting [1] is 2 µM [falling, full curve].

For `COc1cccc(-c2cn3nc(C)c(C)nc3n2)c1`, the AC50 under setting [1] was 20 µM [falling, single point].

For the molecule `COc1ccccc1C(=O)N1CCC(c2noc(-c3ccc(S(=O)(=O)N4CCCC4)cc3)n2)CC1`, the AC50 under setting [1] is 20 µM [falling, partial curve].

For the molecule `O=C(NCCc1ccc(Cl)cc1)c1ccc(CS(=O)Cc2ccccc2Cl)o1` (stereo not drawn), the AC50 under setting [1] is 15.8 µM [falling, partial curve].

`COc1cc2c(cc1OC)C(C)N(C(=O)C1COc3ccccc3O1)CC2` (stereo not drawn): the AC50 under setting [1] was 20 µM [falling, partial curve].

As to `c1ccc(-c2csc3nnc(SCc4ccc5c(c4)OCO5)n23)cc1`, the concentration at half-maximal activity (AC50) under setting [1] is 25.1 µM [falling, partial curve].

`COc1ccc(C(=O)Nc2ccc(-c3ccc(C)o3)cc2)cc1S(=O)(=O)N1CCOCC1`: the AC50 under setting [1] was 39.8 µM [rising, single point] [measured here: IkB-luc green channel].

Turning to `Cn1c(=O)n(C)c2cc(NS(=O)(=O)c3ccc(F)cc3)ccc21`, the AC50 under setting [1] is 31.6 µM [rising, partial curve] [measured here: IkB-luc green channel].

For the molecule `COc1cccc(C(=O)Nc2ccc3nc(SCC(=O)N4CCOCC4)sc3c2)c1`, the AC50 under setting [1] is 3.98 µM [falling, partial curve].

As for `COc1cc2nc(NCCC(C)C)n3nc(-c4ccccc4)nc3c2cc1OC`, the AC50 under setting [1] was 0.1 µM [falling, full curve].

Take `CCCCS(=O)(=O)c1oc(-c2cccs2)nc1S(=O)(=O)c1ccccc1`: the AC50 under setting [1] is 3.98 µM [falling, partial curve].

For `Cc1nn(-c2ccccc2)c(N2CCCC2)c1/C=N/n1cnc2scc(-c3ccccc3)c2c1=O`, the AC50 under setting [1] was 6.31 µM [falling, partial curve].

For the molecule `Cc1cc(C)n2c(Nc3ccc(Cl)cc3)c(-c3ccsc3)nc2n1`, the AC50 under setting [1] was 12.6 µM [falling, partial curve].
